{"sequences": {"note": "Protein sequences, listed by entry. Tags and fused reporters are not part of them. Lines headed by an entry give the natural chain unless they say otherwise; changes in a name come on top.", "UniProt P19490": "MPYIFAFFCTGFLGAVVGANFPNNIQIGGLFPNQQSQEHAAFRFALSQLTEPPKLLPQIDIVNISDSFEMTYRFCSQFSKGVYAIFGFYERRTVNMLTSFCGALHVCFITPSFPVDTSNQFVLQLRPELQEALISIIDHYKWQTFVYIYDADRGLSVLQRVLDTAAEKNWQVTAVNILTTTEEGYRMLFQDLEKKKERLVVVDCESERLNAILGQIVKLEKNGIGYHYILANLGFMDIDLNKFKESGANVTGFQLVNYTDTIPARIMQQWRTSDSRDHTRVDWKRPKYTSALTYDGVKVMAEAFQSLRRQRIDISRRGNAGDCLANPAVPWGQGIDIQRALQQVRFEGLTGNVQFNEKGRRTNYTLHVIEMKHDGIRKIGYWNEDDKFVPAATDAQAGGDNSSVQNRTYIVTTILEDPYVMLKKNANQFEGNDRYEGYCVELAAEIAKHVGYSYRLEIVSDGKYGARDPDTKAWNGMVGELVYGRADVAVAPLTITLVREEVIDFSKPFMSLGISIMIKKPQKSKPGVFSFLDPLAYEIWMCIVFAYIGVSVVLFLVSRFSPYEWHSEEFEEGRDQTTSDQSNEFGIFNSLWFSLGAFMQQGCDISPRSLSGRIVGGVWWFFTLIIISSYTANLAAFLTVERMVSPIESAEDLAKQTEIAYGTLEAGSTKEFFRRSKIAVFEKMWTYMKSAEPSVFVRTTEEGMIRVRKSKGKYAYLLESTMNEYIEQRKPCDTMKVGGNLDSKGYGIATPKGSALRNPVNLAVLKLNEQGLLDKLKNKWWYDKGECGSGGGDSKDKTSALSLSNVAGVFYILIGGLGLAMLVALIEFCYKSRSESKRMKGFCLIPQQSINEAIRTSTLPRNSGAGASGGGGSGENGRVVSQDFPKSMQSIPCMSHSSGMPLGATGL", "UniProt P46462": "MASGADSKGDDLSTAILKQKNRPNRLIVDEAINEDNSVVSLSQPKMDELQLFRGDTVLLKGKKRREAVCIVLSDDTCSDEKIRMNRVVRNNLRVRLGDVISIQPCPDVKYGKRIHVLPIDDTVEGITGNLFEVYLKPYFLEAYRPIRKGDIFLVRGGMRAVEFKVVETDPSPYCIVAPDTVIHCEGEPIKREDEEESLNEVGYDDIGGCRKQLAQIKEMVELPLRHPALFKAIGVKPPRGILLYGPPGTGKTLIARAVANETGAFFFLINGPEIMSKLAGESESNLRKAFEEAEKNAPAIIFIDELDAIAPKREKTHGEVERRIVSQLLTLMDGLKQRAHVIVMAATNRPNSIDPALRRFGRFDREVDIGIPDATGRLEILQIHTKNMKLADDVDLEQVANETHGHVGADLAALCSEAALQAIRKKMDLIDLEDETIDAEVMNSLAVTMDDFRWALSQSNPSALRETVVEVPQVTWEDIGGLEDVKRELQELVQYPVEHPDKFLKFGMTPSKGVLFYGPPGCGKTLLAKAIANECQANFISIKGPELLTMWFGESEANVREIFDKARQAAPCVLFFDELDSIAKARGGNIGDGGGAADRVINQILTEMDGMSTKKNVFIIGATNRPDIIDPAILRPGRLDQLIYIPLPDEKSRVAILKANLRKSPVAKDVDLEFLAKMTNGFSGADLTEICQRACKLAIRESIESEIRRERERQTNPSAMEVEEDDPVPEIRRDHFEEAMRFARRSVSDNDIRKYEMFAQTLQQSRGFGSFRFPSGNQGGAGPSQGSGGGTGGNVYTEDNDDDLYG"}, "source": "paper PMC6733861", "biological_target": "GluA1Δ510-541 (UniProt P19490)", "experiment": "co-IP; COS7 cells co-transfected with p97 and HA-GluA1, HA-GluA2 or a GluA1 deletion or swap construct; RIPA lysate; IP with anti-GluA1, anti-GluA2 or anti-HA; blot for p97; also after DBeQ (0, 0.1, 1, 10, 50 μM; 30 min) on the cells", "note": "Results are given in words; binding and its absence hold for the method and conditions named. Binding seen in cells or lysates may run through a third protein. A result given as binding can be weak or reduced; the word gives no strength."}
{"substance": "p97 expressed in mammalian cells (pcDNA3.1) (from UniProt P46462 1-806)", "values": [{"measurement": "binding", "value": "binds"}]}
